Data on two substances can be found in article PMC5338267.

Amino acid sequences for entries named in this document (tags omitted).
UniProt P17931: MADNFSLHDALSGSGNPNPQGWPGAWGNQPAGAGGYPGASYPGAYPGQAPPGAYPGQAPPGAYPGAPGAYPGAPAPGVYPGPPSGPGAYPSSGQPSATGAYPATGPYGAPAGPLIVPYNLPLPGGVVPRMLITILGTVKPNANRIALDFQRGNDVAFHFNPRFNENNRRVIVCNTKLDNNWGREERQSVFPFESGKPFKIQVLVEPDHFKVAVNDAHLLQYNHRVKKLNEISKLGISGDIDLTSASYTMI
UniProt Q13283: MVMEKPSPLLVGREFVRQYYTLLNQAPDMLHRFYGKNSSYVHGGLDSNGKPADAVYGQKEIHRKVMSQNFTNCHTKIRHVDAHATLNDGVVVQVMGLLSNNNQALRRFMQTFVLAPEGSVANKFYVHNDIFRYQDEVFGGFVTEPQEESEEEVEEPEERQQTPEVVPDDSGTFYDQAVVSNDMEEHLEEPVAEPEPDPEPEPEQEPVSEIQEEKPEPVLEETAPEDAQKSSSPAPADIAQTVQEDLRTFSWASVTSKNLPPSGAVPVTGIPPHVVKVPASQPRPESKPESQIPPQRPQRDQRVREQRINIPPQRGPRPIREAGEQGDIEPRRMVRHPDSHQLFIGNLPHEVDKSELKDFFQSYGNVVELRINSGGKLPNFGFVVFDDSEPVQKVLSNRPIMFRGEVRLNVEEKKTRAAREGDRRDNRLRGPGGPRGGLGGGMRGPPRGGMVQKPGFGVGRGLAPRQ
UniProt P05198: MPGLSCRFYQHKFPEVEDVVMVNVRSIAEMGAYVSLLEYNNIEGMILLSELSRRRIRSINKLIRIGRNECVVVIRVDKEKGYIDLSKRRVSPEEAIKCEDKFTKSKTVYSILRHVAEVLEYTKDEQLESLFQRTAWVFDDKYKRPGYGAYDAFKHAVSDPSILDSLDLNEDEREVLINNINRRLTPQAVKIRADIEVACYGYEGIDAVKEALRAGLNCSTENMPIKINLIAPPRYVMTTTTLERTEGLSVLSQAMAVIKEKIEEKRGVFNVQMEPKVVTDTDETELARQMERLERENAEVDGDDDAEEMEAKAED

No constants are given. Whether binding was seen depends on the method and setting. In cells and extracts the contact can be indirect. Some results given as binding are weak or reduced against the parent protein; the word gives no strength.

This assay deals with Galectin-3 (human (endogenous in CAPAN-1-derived Sc cells)) (UniProt P17931). The experiment in a line: proximity ligation; Duolink In Situ; cells fixed with 4% PFA and permeabilised with 0.2% saponin; primary antibodies overnight at RT; spots counted per cell; Sc cells in basal state, treated with nocodazole, or after heat stress (42 °C, 30 min).

For the substance G3BP1 (from UniProt Q13283 1-466), the binding entry is given as “binds weakly”.
As to eIF2α (from UniProt P05198 1-315), the binding result is given as “binds weakly”.
